# In PubChem BioAssay AID540335 (Broad Institute, 2011):
# The campaign covered roughly 1,300 compounds. About 270 (21%) were called active.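 The calls were made as follows: active = dose-dependent rise or fall in viability, either side of zero, with half-maximal concentration at or below a set limit; inconclusive = flat curve at 30 to 70% viability loss, or poor fit; inactive = flat within 30% either way, or potency beyond limit.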 Some of the results follow. Potency and affinity values are given separately.
# Experiment: proliferation inhibition in MITF-low A375 cells – cell-based, cherry-pick samples, set 2, counter-screen for MITF modulator project, dose response (AID 540335);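 also: A375 human melanoma cells which do not depend on MITF; 0% = median of neutral control wells and 100% = double that signal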
# Settings: CellTiter-Glo ATP luminescence, 24 h; at 35 µM (top of the series)
row,SMILES,"activity change, negative = decreased viability"
1,COc1cc(-c2nnc(-c3ccco3)o2)ccc1OCc1ccccc1,inactive: 4.59%
2,O=C1c2ccccc2S(=O)(=O)N1Cc1nc2ccccc2s1,inactive: -1.65%
3,CC(=O)Oc1ccc(C)cc1-n1nc2ccccc2n1,inactive: -15.9%
4,O=C(NCc1csc(-c2cccs2)n1)C1CCC1,inactive: 12.6%
5,COc1cc(NC(=O)c2ccc([N+](=O)[O-])o2)ccc1NC(=O)c1cccs1,inactive: -28.9%
6,COc1ccc(C(=O)/C=C/C(=O)N(CC(=O)NC2CCCCC2)Cc2cccs2)c(O)c1,inactive: -2.13%
7,C/C(=N\NC(=O)C(c1ccccc1)c1ccccc1)c1ccccn1,inactive: -34.8%
8,c1cnc(SCCOc2ccc3c(c2)CCC3)nc1,inactive: 1.24%
9,O=C(c1cc2ccccc2oc1=O)N1CCN(c2ncccn2)CC1,inactive: -20.7%
10,O=C(CCNc1ccccc1)c1ccc2c(c1)OCO2,inactive: 10.6%
11,COc1ccc2oc(=O)c(C(=O)Nc3ccccc3C)cc2c1,inactive: 7.75%
12,O=C(c1ccc(F)cc1)N1CCC(c2ccccc2)C1 (stereo not given),inactive: 7.1%
13,O=C(N/N=C/c1cccc2cccnc12)c1ccccc1O,inactive: -38%
14,O=C(O)c1ccc(N/N=C/c2ccc(OC(=O)c3cccc(Cl)c3)cc2)cc1,inactive: 1.31%
15,O=C(Nc1nc2cc3c(cc2s1)OCO3)C1=COCCO1,inactive: -19.3%
16,CCCCOC(=O)c1[nH]c(C)c(C(=O)OC)c1C,inactive: 11.2%
17,O=C(CSc1nc2ccccc2[nH]1)c1ccc2c(c1)OCO2,inactive: 5.51%
18,COc1cccc(NC(=O)c2cnn(-c3ccccc3)c2C)c1,inactive: -1.05%
19,O=C(Nc1ccc(-c2nc3ncccc3o2)cc1)c1ccc([N+](=O)[O-])o1,inactive: -6.72%
20,CN(c1cccc(NC(=O)COc2ccc(Cl)cc2Cl)c1)S(C)(=O)=O,inactive: -2.24%
21,Cc1cc(C(C)(C)C)cc(C)c1Cn1c2[n+](c3ccc(C(F)(F)F)cc31)CCCCC2,inactive: -33.6%
22,CC(C)(C)C(=O)Cn1ncc(Cl)c(Cl)c1=O,inactive: 55.4%

row,SMILES,"activity change, negative = decreased viability"
1,C=CCSC(=S)NC1CCS(=O)(=O)C1 (stereo not given),inactive: -5.74%
2,Cn1cc(C(=O)CCl)c2ccccc21,inactive: -8.83%
3,CN1CCN(c2ccc(NC(=S)NC(=O)c3cccc4ccccc34)cc2)CC1,inactive: -38.8%
4,O=C(NC1CCCCC1)C(c1cccnc1)N(C(=O)CCl)c1ccc(F)cc1 (stereo not given),inactive: -9.62%
5,Cc1cc(C(=O)CN2C(=O)c3ccccc3S2(=O)=O)c(C)n1-c1ccccc1,inactive: 6.79%
6,CC(C)(C)NC(=O)CCN(/N=C/c1ccc([N+](=O)[O-])o1)C1=NS(=O)(=O)c2ccccc21,inactive: -15.5%
7,COCCn1c(C)cc(C(=O)CSc2nnc(C)s2)c1C,inactive: -3.23%
8,Fc1ccc(-c2nnc(-c3ccc(F)cc3)o2)cc1,inactive: -2.86%
9,O=C(Nc1ccc(N2CCOCC2)cc1)c1cnsn1,inactive: 1.29%
10,Cc1cc(C)cc(OCC(=O)N/N=C/c2ccc([N+](=O)[O-])o2)c1,inactive: -0.821%
11,CC(O)CNC(=O)C1CCN(Cc2ccc(OCc3ccccc3)cc2)CC1 (stereo not given),inactive: 1.88%
12,O=C(c1cc2ccccc2oc1=O)N(Cc1ccccc1)C1CCS(=O)(=O)C1 (stereo not given),inactive: 1.48%
13,O=C(CNc1cccc2ccccc12)N/N=C/c1ccc([N+](=O)[O-])o1,inactive: -18.9%
14,Nc1c(-c2ccc(Cl)cc2)nnn1-c1ccccc1,inactive: 11.1%
15,[2H]C(CCOS(N)(=O)=O)c1ccc(C(C)(C)C)cc1 (stereo not given),inactive: -8.41%
16,COc1ccccc1NS(=O)(=O)c1cc(NC(=O)c2ccc(Cl)nc2)ccc1Cl,inactive: -3.13%
17,CC(=O)N(C1CC(C)C(C#N)(C#N)C1(C#N)C#N)N(C)C (stereo not given),inactive: 51.1%
18,CCCCN=C(C)c1c(O)c2ccccc2oc1=O,inactive: 9.28%
19,CCN(CC)CCC(=O)N1C/C(=C/c2ccccc2)C(=O)/C(=C\c2ccccc2)C1,inactive: 71.7%
20,CCOc1cccc(C(=O)NC2=NCCS2)c1,inactive: 1.86%
21,O=C(N/N=C/c1ccc([N+](=O)[O-])s1)c1ccccc1Br,inactive: -17.8%
22,CC1CCCC(C)N1CCCNC(=O)c1cc2c(s1)-c1ccccc1OC2 (stereo not given),inactive: 2.66%

# An excerpt from above in order of length of the SMILES, largest number first.
row,SMILES,"activity change, negative = decreased viability"
20,CN(c1cccc(NC(=O)COc2ccc(Cl)cc2Cl)c1)S(C)(=O)=O,inactive: -2.24%
15,[2H]C(CCOS(N)(=O)=O)c1ccc(C(C)(C)C)cc1 (stereo not given),inactive: -8.41%
11,COc1ccc2oc(=O)c(C(=O)Nc3ccccc3C)cc2c1,inactive: 7.75%
8,Fc1ccc(-c2nnc(-c3ccc(F)cc3)o2)cc1,inactive: -2.86%

# (list continues)

row,SMILES,"activity change, negative = decreased viability"
1,Cc1ccc2oc(C(Cl)(Cl)Cl)cc(=O)c2c1,inactive: -16.5%
2,C/C(=N\NC(=O)COc1ccccc1-c1ccccc1)c1ccccn1,inactive: -22.8%
3,Cc1ccc(C2=NN(C(=O)CCl)C(c3cccs3)C2)o1 (stereo not given),inactive: 17.7%
4,Cn1cccc1C(=O)NC(=O)COC(=O)c1ccc(S(C)(=O)=O)c([N+](=O)[O-])c1,inactive: 11.1%
5,O=S(=O)(c1ccc(F)cc1)c1snnc1-c1ccccc1,inactive: -41.1%
6,O=C(Nc1cnc2ccccn2c1=O)c1ccc(F)cc1,inactive: 4.12%
7,COc1ccc(Cn2c(-c3ccc(C)cc3)c[n+]3ccccc23)cc1,inactive: -16.4%
8,CC1=C/C(=N\NC(=S)Nc2cccnc2)CC(C)(C)C1,inactive: -15.5%
9,Cc1cc(C(=O)COc2cccnc2[N+](=O)[O-])c(C)n1-c1ccccc1,inactive: -0.063%
10,Cc1cc(C)c2ccc(N)nc2c1O,inactive: -31.2%
11,CC1(C)CC(=O)c2cnc(N3CCc4ccccc43)nc2C1,inactive: 6.75%
12,CSc1nc(N)n2nc(-c3ccc(Cl)cc3)cc2n1,inactive: -0.632%
13,CC(C)c1ccc(/C=C2\SC(=S)N(CCC(=O)N3CCCCC3CCO)C2=O)cc1 (stereo not given),inactive: 5.77%
14,Cc1ccc(OCCCCN2CCCCC2)c(Br)c1,inactive: 3.68%
15,C=C1C(=O)C2=CC1CCC(=O)C1(C)CCC(OC(C)=O)C(C)(C)C1CC2O (stereo not given),inactive: 25.9%
16,CC(C)(C)c1ccc(-c2noc(CCC(=O)NCc3ccco3)n2)cc1,inactive: -11.9%
17,C=CCNC(=O)Cn1nnc(-c2ccc(-c3ccc(OC)cc3)cc2)n1,inactive: 4.23%
18,Cc1cc(C)c2sc(N(CCCN(C)C)C(=O)COc3ccc(Cl)cc3)nc2c1,inactive: -86.6%
19,Cc1cc(/C(N)=N/OC(=O)Nc2ccc(Cl)cc2)no1,inactive: 13.2%
20,COc1ccc(C(=O)C(CN2CCOCC2)c2ccccc2)cc1 (stereo not given),inactive: -14.1%
21,Cc1ccc(-c2noc(-c3ccno3)n2)cc1,inactive: 11.5%
